Assay results: patent US20250002599A1
Results are given in words; binding and its absence hold for the method and conditions named. Some results given as binding are weak or reduced against the parent protein; the word gives no strength.

Sequences of proteins named here, by UniProt entry; tags and fusion partners are left off. A change or cut given only in a name is not applied to a line headed by its entry. A line that says so, or that is headed by a name, gives the form on record, which may keep a tag or linker.
M4 (Q07011, form named): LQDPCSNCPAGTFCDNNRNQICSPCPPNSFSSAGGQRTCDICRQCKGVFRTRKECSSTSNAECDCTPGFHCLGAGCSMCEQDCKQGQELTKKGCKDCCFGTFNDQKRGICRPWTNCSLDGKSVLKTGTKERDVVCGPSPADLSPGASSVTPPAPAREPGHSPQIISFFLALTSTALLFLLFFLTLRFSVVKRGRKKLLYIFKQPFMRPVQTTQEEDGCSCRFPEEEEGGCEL
M3 (Q07011, form named): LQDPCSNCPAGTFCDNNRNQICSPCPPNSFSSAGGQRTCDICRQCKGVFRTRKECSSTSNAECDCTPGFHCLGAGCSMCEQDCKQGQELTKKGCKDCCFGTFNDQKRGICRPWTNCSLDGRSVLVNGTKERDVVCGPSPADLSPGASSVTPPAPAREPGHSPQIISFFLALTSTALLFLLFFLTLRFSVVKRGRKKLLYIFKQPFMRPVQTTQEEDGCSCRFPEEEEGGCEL

Columns and labels:
M4 (Homo sapiens) = M4 (Homo sapiens) (UniProt Q07011); assay: flow cytometry on HEK293T cells transiently transfected with human CD137 mutant M4; one antibody concentration, not given
M3 (Homo sapiens) = M3 (Homo sapiens) (UniProt Q07011); assay: flow cytometry on HEK293T cells transiently transfected with human CD137 mutant M3; one antibody concentration, not given

- binding (M4 (Homo sapiens)): binds
- binding (M3 (Homo sapiens)): binds
B1: 1923Ab4 (antibody, V domains shown)
VH: QVQLVESGGGVVQPGRSLRLSCAASGFTFSNYGMHWVRQAPGKGLEWVAIIWYDGINKYYADSVKGRFTISRDNSKNTLYLQMNSLKAEDTAVYYCARDQDYDILTGYYKEDYFDFWGQGTLVTVSS
VL: SYELTQPPSVSVSPGQTARITCSGDALPKKYAYWYQQKSGQAPVLVIYEDSKRPSGIPERFSGSSSGTMATLTISGAQVEDEADYYCYSTDSSGNRVFGGGTKLTVL
